Results deposited as PubChem BioAssay AID504793 (Drosophila RNAi Screening Center, 2011).

Assay: 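Genes required for cells to halt at G2/M after double-strand DNA breaks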 (primary screen)
System: Drosophila S2R+ cells
Knock-down reagent: long dsRNA against Drosophila genes, about 0.25 µg dsRNA per well
Duration: 4 days of dsRNA, then 4 hours of drug before read-out
Challenge: doxorubicin 0.5 µM for 4 hours to cause double-strand breaks, in cells also given a low, harmless dose of dsRNA against nbs to sensitise the assay
Detection: 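Mitotic index as the number of phospho-histone H3-positive cells in each well following doxorubicin, given as raw counts without normalisation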
Reading the numbers: mitotic cells: higher = more cells in mitosis, weaker G2 arrest
Active means: 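a call needs confirmation in secondary tests, with other dsRNAs and a check of mitotic timing without damage, not just a high primary count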
Calls: active = confirmed in follow-up tests; inactive = not confirmed
In all, the deposit lists about 23,000 reagents; shown is an unselected part of those that have a named target and a result. Of all reagents, 62 (0.27%) were called active. 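Calls come from follow-up tests whose scores are not deposited, so confirmed genes may have low counts here; counts are not normalised per plate.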 Raw values vary from plate to plate and are shown uncorrected. The numbers tell different reagents against one gene apart. A plus sign joins genes that one reagent is predicted to hit.

target gene	dsRNA no.	mitotic cells, replicate 1	mitotic cells, replicate 2	call
dsh	1	18		inactive
dsh	2	8		inactive
CG11454	1	4		inactive
CG11454	2	2		inactive
tadr	1	3		inactive
ss	1	6		inactive
Mst57Db	1	6		inactive
CheA75a	1	7		inactive
RabX1	1	3		inactive
Sas-4	1	2		inactive
mrt	1	6		inactive
mrt	2	5		inactive
CG42518 + MED9	1	7		inactive
CG11920	1	8		inactive
RnpS1	1	4		inactive
CG14420	1	14		inactive
CG14420	2	4		inactive
CG32024	1	6		inactive
CG6766	1	6	9	inactive
CG9705	1	4		inactive
CG30376	1	5		inactive
Cand1	1	3		inactive
aspr	1	5		inactive
aspr	2	9		inactive
CG31647 (retired record)	1	7		inactive
CG31647 (retired record)	2	11		inactive
bcd	1	5		inactive
bcd	2	5		inactive
CG10395	1	8		inactive
CG10395	2	1		inactive
CG9281	1	8		inactive
CG9281	2	4		inactive
CG30015	1	1		inactive
CG30015	2	7		inactive
CG30015	3	8		inactive
CG3679	1	7		inactive
CG3679	2	5		inactive
CG10481	1	11		inactive
hfw	1	10		inactive
hfw	2	11		inactive
l(3)72Dp	1	3		inactive
CNT1	1	8		inactive
CNT1	2	10		inactive
ninaG	1	4		inactive
CG5863	1	8		inactive

2 entries already listed, ordered by “mitotic cells, replicate 1”, ascending:
target gene	dsRNA no.	mitotic cells, replicate 1	mitotic cells, replicate 2	call
CG14420	2	4		inactive
CG14420	1	14		inactive
